Test results: US20200339700A1 (Bristol-Myers Squibb, published 2020)

B1: 12D6-24-L4H4 (antibody, human IgG1, V domains shown)
VH: QVQLVQSGAEVKKPGASVKVSCKASGYTFTGYNMNWVRQAPGQGLEWMGNIDPYYGNTNYNQKFKGRTTLTADTSTSTAYMELSSLRSDDTAVYYCARLGLQLYALDYWGQGTLVTVSS
VL: DIVLTQSPDSLAVSLGERATINCRASQSLVHSNANTYLHWYQQKPGQPPKLLIYKLTNRFFGVPDRFSGSGSGTDFTLTISSLQAEDVAVYYCQQSIHVPWTFGQGTKLEIK
B2: 12D6-24-L4H1 (antibody, human IgG1, V domains shown)
VH: B1 VH with T68V, L70M, A72T, S84R, L114T
VL: B1 VL
B3: 12D6-24 variant L1H4 (antibody, human IgG1, V domains shown)
VH: B1 VH
VL: DIVMTQTPLSLPVTPGEPASISCRSSQSLVHSNANTYLHWYLQKPGQSPQLLIYKLTNRFFGVPDRFSGSGSGTDFTLKISRVEAEDVGVYYCSQSIHVPWTFGGGTKVEIK
B4: 12D6-24 variant L4H2 (antibody, human IgG1, V domains shown)
VH: B1 VH with A16S, R67K, T74K
VL: B1 VL

Target: human CD40 (human)
Assay: ELISA

binding | Binder
binds | B1
binds | B2
binds | B3
binds | B4

Target: human CD40 (human)
Assay: ELISA (summary statement)

binding | Binder
binds | B1
binds | B2

Positions count from the first letter of the chain named. Results are given in words; binding and its absence hold for the method and conditions named. Binding can be weak; no strength is given.
